The whole screen tested about 360,000 compounds, of which about 7,500 (2.1%) were called active. The inconclusive results got no clear call from the source; some entries with a clear call stand among them for comparison. The call rests on the fitted dose curve; in most records, active means well fitted inhibition curve with a large enough effect; inconclusive means small, poorly fitted or top-dose-only effect, or effect the other way; inactive means flat fitted curve, though single readings scatter. Potencies of inconclusive entries are doubtful fits and often do not repeat.
test: Nrf2 qHTS screen for inhibitors; conditions: A549 ARE-Fluc reporter, luciferase luminescence, 18-24 h; series mostly up to 46 µM; further: nearly all actives have a fitted effect of over 60% in size
Method in brief: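 A549 ARE_Fluc cells, 5000/well, 5% FBS OPTI-MEM; compounds in dose-response, 18-24 h at 37 °C/5% CO2; CellTiter-Fluor viability read (Ex 405/Em 525), then BugLite luciferase luminescence = Nrf2 activity.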
Potency means the concentration at half of the fitted maximal effect.

With `Cn1c(=O)c([N+](=O)[O-])c(-n2ccnc2)c2ccccc21` as the molecule, how does the Potency read?
Its Potency is inconclusive: 16.4 µM [activator, single point].

Which Potency does the source give for `COc1cc(OC)cc(C2=Nn3c(nnc3-c3ccccc3O)SC2)c1` here?
Its Potency is inconclusive: 7.31 µM [activator, partial curve, poor fit].

Which Potency does the source give for `Cc1ccc(S(=O)(=O)N2CCC3(CC2)OCCN3S(=O)(=O)c2c(C)cc(C)cc2C)cc1` here?
The Potency was “inactive”.

Which Potency does the source give for `O=C(CN1CCCCC1)Nc1scc2c1c(=O)oc1ccccc12` here?
Its Potency is inconclusive: 2.31 µM [activator, partial curve].

For `Nc1c(C(=O)Nc2ccc(Cl)cc2F)sc2nc(-c3cccs3)ccc12`, which Potency is on record?
Its Potency is “inactive”.

For `C[N+](C)(C)CCCCCC[N+](C)(C)C`, which Potency is on record?
Its Potency is “inactive”.

With `O=C(Cc1csc(N2CCOCC2)n1)N/N=C/c1ccc(Cl)cc1Cl` as the molecule, how does the Potency read?
Its Potency is inconclusive: 8.2 µM [falling, partial curve, poor fit].

With `Cc1cc(NC(=O)c2cccc(S(=O)(=O)N3CCCCCC3)c2)no1` as the molecule, how does the Potency read?
The Potency was inconclusive: 20.6 µM [falling, partial curve, poor fit].

With `Cc1ccc(Cl)cc1NC(=O)/C(C#N)=C\c1cn(Cc2ccc(F)cc2)c2ccccc12` as the molecule, how does the Potency read?
Its Potency is inconclusive: 8.2 µM [falling, partial curve, poor fit].

Which Potency does the source give for `O=C(CN1CCN(C(=O)CNC(=O)c2ccc3c(c2)OCO3)CC1)Nc1ccc(F)cc1` here?
The Potency was inconclusive: 18.4 µM [falling, partial curve, poor fit].

With `Cc1ccccc1C(=O)Nc1ccc2nc(SCCOc3ccccc3)sc2c1` as the molecule, how does the Potency read?
The Potency was inconclusive: 29.1 µM [falling, single point].

Which Potency does the source give for `COc1cc(/C=C2/SC(=O)N(Cc3ccccc3)C2=O)ccc1OCc1ccncc1` here?
Its Potency is inconclusive: 29.1 µM [falling, single point].

With `COc1ccc(CN2CCN(C(=O)c3cccc4ccccc34)CC2)cc1OC` as the molecule, how does the Potency read?
Its Potency is “inactive”.

For `COc1ccc(NC(=O)CNS(=O)(=O)c2cccs2)cc1`, which Potency is on record?
Its Potency is inconclusive: 9.2 µM [activator, partial curve].

For `Cc1c(Cl)cccc1N=C1SCCN1C(=O)CN1C(=O)NC2(CCCC2)C1=O`, which Potency is on record?
The Potency was inconclusive: 29.1 µM [falling, single point].

Which Potency does the source give for `COc1ccccc1C(=O)NCCC(=O)Nc1ccc(S(=O)(=O)N2CCC(C)CC2)cc1` here?
Its Potency is active: 11.6 µM.

Which Potency does the source give for `O=C(Cc1cccs1)NNC(=S)NCc1ccco1` here?
The Potency was inconclusive: 0.0651 µM [falling, full curve, poor fit].

With `Cc1ccc(S(=O)(=O)N2CCCC2CNC(=O)C(=O)Nc2ccc(F)cc2)cc1` (configuration not stated) as the molecule, how does the Potency read?
The Potency was active: 13 µM.

With `Clc1ccc(-c2nnc(CSc3nnc(-c4cccs4)n3Cc3ccccc3)o2)cc1` as the molecule, how does the Potency read?
The Potency was active: 20.6 µM.

With `CCOc1cc2c(cc1OCC)CN(C(=O)c1cccc(S(=O)(=O)N3CCCC3)c1)CC2` as the molecule, how does the Potency read?
The Potency was inconclusive: 18.4 µM [falling, single point].

With `CCc1ccc(-c2cc(C)no2)cc1S(=O)(=O)N1CCN(c2ccc(C(C)=O)cc2)CC1` as the molecule, how does the Potency read?
The Potency was inconclusive: 14.6 µM [falling, partial curve].

With `COc1ccc(/C(O)=C/C(=O)C(=O)NNC(=O)c2ccccc2)cc1` as the molecule, how does the Potency read?
The Potency was inconclusive: 9.2 µM [activator, partial curve].

Which Potency does the source give for `COC(=O)C(C)Oc1ccc(-c2nccc(-c3ccccn3)n2)cc1` (configuration not stated) here?
Its Potency is “inactive”.

Which Potency does the source give for `COc1ccc(-c2cn3nc(N4CCC(C(=O)Nc5cc(Cl)ccc5OC)CC4)sc3n2)cc1` here?
The Potency was “inactive”.

Which Potency does the source give for `Cc1nn(C)c(Nc2ccc(Br)cc2)c1Br` here?
Its Potency is inconclusive: 18.4 µM [falling, single point].

For `COC(=O)c1cn(CCOc2ccccc2F)c2ccccc12`, which Potency is on record?
Its Potency is inconclusive: 29.1 µM [falling, single point].

With `Cc1cc(C(=O)CSc2nnc(-c3cccc(F)c3)n2N)c(C)n1Cc1ccc2c(c1)OCO2` as the molecule, how does the Potency read?
Its Potency is inconclusive: 29.1 µM [falling, single point].

With `CCc1ccccc1Nc1nc2ccccc2n1C` as the molecule, how does the Potency read?
Its Potency is inconclusive: 20.6 µM [activator, single point].

With `CCOCCCNS(=O)(=O)c1ccccc1` as the molecule, how does the Potency read?
The Potency was inconclusive: 2.91 µM [activator, partial curve, poor fit].

For `COc1ccc(-n2nc(C(=O)c3cccs3)cc(-c3nc4ccccc4[nH]3)c2=N)cc1`, which Potency is on record?
Its Potency is “inactive”.

Which Potency does the source give for `O=C(/C=C/c1ccc(Cl)cc1Cl)N1CCN(c2ccccc2[N+](=O)[O-])CC1` here?
The Potency was inconclusive: 29.1 µM [falling, single point].

With `Cc1ccccc1OCC(=O)Nc1ccc(S(=O)(=O)N2CCOCC2)cc1` as the molecule, how does the Potency read?
Its Potency is inconclusive: 29.1 µM [falling, single point].

Which Potency does the source give for `O=C(C[C@@H]1C/C=C\CC[C@H](Cc2ccc(F)cc2)C(=O)OC[C@@H]2CCCN2C1=O)N[C@H](CO)Cc1ccccc1` here?
Its Potency is inconclusive: 29.1 µM [falling, single point].

With `CCOc1ccc(-c2nonc2NC(=O)c2oc3cc(Br)ccc3c2C)cc1` as the molecule, how does the Potency read?
The Potency was “inactive”.

With `Cc1cc(O)ccc1Nc1nc(-c2cccs2)cs1` as the molecule, how does the Potency read?
The Potency was inconclusive: 23.1 µM [activator, partial curve].

Which Potency does the source give for `COc1ccccc1CNC(=O)CN1c2cccc3cccc(c23)S1(=O)=O` here?
The Potency was inconclusive: 13 µM [falling, partial curve, poor fit].

With `CCCCNC(=O)CCC(=O)N1CCN(C(c2ccccc2)c2ccccc2)CC1` as the molecule, how does the Potency read?
Its Potency is inconclusive: 23.1 µM [activator, single point].

Which Potency does the source give for `Cc1cc(N2CCOCC2)c2c(N)cc(C)c(C)c2n1` here?
The Potency was “inactive”.

For `Cc1ccccc1OCC(=O)NNC(=O)Nc1ccccc1`, which Potency is on record?
The Potency was inconclusive: 23.1 µM [falling, partial curve, poor fit].

Which Potency does the source give for `COc1cc2c(c(O)c1OC)C(=O)C(OC)CCC2` (configuration not stated) here?
Its Potency is “inactive”.

With `CN(C1=NC(=O)C(CC(=O)O)S1)c1ccc(O)cc1` (configuration not stated) as the molecule, how does the Potency read?
Its Potency is inconclusive: 6.51 µM [activator, single point].

Which Potency does the source give for `O=S1(=O)CCOC[C@H](CC2CCCCC2)N1Cc1cccc(C(F)(F)F)c1` here?
Its Potency is inconclusive: 18.4 µM [falling, single point].

For `CCCCCCCCCCCCS(=O)(=O)CCC(=O)O`, which Potency is on record?
Its Potency is inconclusive: 18.4 µM [falling, single point].

With `CC(NC(=O)c1cc2sccc2n1Cc1ccc(F)cc1)c1ccccc1` (configuration not stated) as the molecule, how does the Potency read?
Its Potency is “inactive”.

For `O=C(CSc1nnc(-c2ccccn2)o1)Nc1ccccc1Cl`, which Potency is on record?
Its Potency is inconclusive: 3.26 µM [activator, partial curve, poor fit].

With `Cc1ccc2c(CN(C)Cc3ccc(OC(F)F)cc3)cc(=O)oc2c1C` as the molecule, how does the Potency read?
The Potency was inconclusive: 18.4 µM [falling, single point].

For `CCc1[nH]nc2c1C(C1C=CCCC1)C(C#N)=C(N)O2` (configuration not stated), which Potency is on record?
The Potency was inconclusive: 16.4 µM [falling, partial curve, poor fit].

Which Potency does the source give for `Cc1nc2ccc(NC(=O)c3ccc(Br)o3)cc2s1` here?
Its Potency is inconclusive: 7.31 µM [activator, partial curve].

With `Cc1cccnc1NC(=O)Nc1ccccc1` as the molecule, how does the Potency read?
The Potency was inconclusive: 18.4 µM [activator, single point].

Which Potency does the source give for `CCc1ccc(NC(=O)N2CCCCCC2)cc1` here?
The Potency was inconclusive: 2.31 µM [activator, full curve].

Which Potency does the source give for `CCOc1ccc(NS(=O)(=O)c2cc(NC(=O)C3CC3)ccc2C)cc1Br` here?
Its Potency is inconclusive: 25.9 µM [falling, single point].

For `CC1=C(C(=O)OCC2CCCO2)C(c2ccc(Cl)c(Cl)c2)NC(=O)N1` (configuration not stated), which Potency is on record?
The Potency was inconclusive: 5.8 µM [falling, partial curve, poor fit].

Which Potency does the source give for `COc1cc(OC)c(OC)cc1CN1CCN(S(=O)(=O)c2ccc(F)cc2)CC1` here?
Its Potency is inconclusive: 0.411 µM [falling, full curve, poor fit].

For `COc1ccc(C2CCCN2C(=S)Nc2ccc(C)cc2C)cc1OC` (configuration not stated), which Potency is on record?
The Potency was inconclusive: 23.1 µM [falling, single point].

For `CCOc1ccccc1Nc1ccc2cc(S(=O)(=O)N3CCCCC3)ccc2n1`, which Potency is on record?
The Potency was inconclusive: 20.6 µM [falling, single point].

With `O=C(Nc1c(O)c2ccccc2[nH]c1=O)c1ccco1` as the molecule, how does the Potency read?
Its Potency is “inactive”.

With `O=C(CC1(O)C(=O)Nc2cc(Cl)cc(Cl)c21)c1ccncc1` (configuration not stated) as the molecule, how does the Potency read?
Its Potency is “inactive”.

For `CCCSCCCNC(=O)CN1C(=O)COc2ccc(S(=O)(=O)N3CCCCCC3)cc21`, which Potency is on record?
The Potency was “inactive”.

With `COc1ccc(C(=O)NC(C)(C)C)cc1S(=O)(=O)N1CCCC1` as the molecule, how does the Potency read?
The Potency was inconclusive: 29.1 µM [falling, single point].

Which Potency does the source give for `Cc1cc(NC(=O)CN(c2cccc(C)c2C)S(=O)(=O)c2ccccc2)ccc1Br` here?
Its Potency is inconclusive: 29.1 µM [falling, single point].

With `O=C(Nc1ccc(F)cc1F)C1CCCN1S(=O)(=O)c1cccc2nsnc12` (configuration not stated) as the molecule, how does the Potency read?
The Potency was “inactive”.

For `Nc1ccccc1C(=O)NNc1ncc(C(F)(F)F)cc1Cl`, which Potency is on record?
Its Potency is inconclusive: 29.1 µM [falling, single point].

For `Cc1cccc(N(C(=O)c2nsc(Cl)c2Cl)C(C(=O)NC2CCCC2)c2ccc(O)cc2)c1` (configuration not stated), which Potency is on record?
Its Potency is inconclusive: 29.1 µM [activator, partial curve, poor fit].

Which Potency does the source give for `Cc1cc(NCCCCO)n2c(nc3ccccc32)c1C#N` here?
The Potency was inconclusive: 0.092 µM [falling, full curve, poor fit].

For `COc1ccc(S(=O)(=O)N2c3cc(C)ccc3OCC2C(C)(C)C)cc1` (configuration not stated), which Potency is on record?
The Potency was inconclusive: 25.9 µM [falling, single point].

Which Potency does the source give for `CCCOc1ccc(CNC(=O)C2CCN(c3nn4c(=O)cc(C)nc4s3)CC2)cc1` here?
Its Potency is inconclusive: 18.4 µM [falling, partial curve, poor fit].

For `C=CCOc1c(Br)cc(/C=N/NC(=O)Cc2ccc(C(F)(F)F)cc2[N+](=O)[O-])cc1OC`, which Potency is on record?
Its Potency is inconclusive: 29.1 µM [falling, single point].
